Test [1] addresses T1, YFP-BBS4 (human) (UniProt Q96RK4).
T1 sequence: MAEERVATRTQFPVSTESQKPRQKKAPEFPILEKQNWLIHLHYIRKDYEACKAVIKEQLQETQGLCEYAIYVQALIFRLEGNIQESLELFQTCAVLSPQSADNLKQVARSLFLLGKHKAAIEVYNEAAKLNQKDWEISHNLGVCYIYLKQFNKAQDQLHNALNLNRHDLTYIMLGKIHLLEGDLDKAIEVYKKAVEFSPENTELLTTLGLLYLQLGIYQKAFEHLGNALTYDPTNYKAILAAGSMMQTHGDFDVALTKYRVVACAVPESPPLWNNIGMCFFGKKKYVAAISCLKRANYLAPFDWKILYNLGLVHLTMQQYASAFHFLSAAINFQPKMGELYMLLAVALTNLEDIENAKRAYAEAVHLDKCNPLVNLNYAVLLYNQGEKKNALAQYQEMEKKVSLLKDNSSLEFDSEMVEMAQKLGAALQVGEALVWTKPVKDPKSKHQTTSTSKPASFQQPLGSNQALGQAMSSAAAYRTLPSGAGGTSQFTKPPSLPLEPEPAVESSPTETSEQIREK
The experiment in a line: co-IP.

Test [2] concerns the target T1, YFP-BBS4 (human). In words: fluorescence correlation spectroscopy.

Results are given in words; binding and its absence hold for the method and conditions named. For part of these data: In cells and extracts the contact can be indirect. Some entries that bind do so weakly or less than the wild type. Sequences can lack the tags named with a protein.

B1: BBS2 (protein, UniProt Q9BXC9 1-721)
chain: MLLPVFTLKLRHKISPRMVAIGRYDGTHPCLAAATQTGKVFIHNPHTRNQHVSASRVFQSPLESDVSLLSINQAVSCLTAGVLNPELGYDALLVGTQTNLLAYDVYNNSDLFYREVADGANAIVLGTLGDISSPLAIIGGNCALQGFNHEGSDLFWTVTGDNVNSLALCDFDGDGKKELLVGSEDFDIRVFKEDEIVAEMTETEIVTSLCPMYGSRFGYALSNGTVGVYDKTSRYWRIKSKNHAMSIHAFDLNSDGVNELITGWSNGKVDARSDRTGEVIFKDNFSSAIAGVVEGDYRMDGHIQLICCSVDGEIRGYLPGTAEMRGNLMDTSAEQDLIRELSQKKQNLLLELRNYEENAKAELASPLNEADGHRGIIPANTRLHTTLSVSLGNETQTAHTELRISTSNDTIIRAVLIFAEGIFTGESHVVHPSIHNLSSSICIPIVPPKDVPVDLHLKAFVGYRSSTQFHVFESTRQLPRFSMYALTSLDPASEPISYVNFTIAERAQRVVVWLGQNFLLPEDTHIQNAPFQVCFTSLRNGGHLHIKIKLSGEITINTDDIDLAGDIIQSMASFFAIEDLQVEADFPVYFEELRKVLVKVDEYHSVHQKLSADMADHSNLIRSLLVGAEDARLMRDMKTMKSRYMELYDLNRDLLNGYKIRCNNHTELLGNLKAVNQAIQRAGRLRVGKPKNQVITACRDAIRSNNINTLFKIMRVGTASS
As to B1, the binding entry in test [1] was “binds”.

B2: BBS8 (protein, UniProt Q8TAM2 1-541)
chain: MSSEMEPLLLAWSYFRRRKFQLCADLCTQMLEKSPYDQEPDPELPVHQAAWILKARALTEMVYIDEIDVDQEGIAEMMLDENAIAQVPRPGTSLKLPGTNQTGGPSQAVRPITQAGRPITGFLRPSTQSGRPGTMEQAIRTPRTAYTARPITSSSGRFVRLGTASMLTSPDGPFINLSRLNLTKYSQKPKLAKALFEYIFHHENDVKTIHLEDVVLHLGIYPFLLRNKNHIEKNALDLAALSTEHSQYKDWWWKVQIGKCYYRLGMYREAEKQFKSALKQQEMVDTFLYLAKVYVSLDQPVTALNLFKQGLDKFPGEVTLLCGIARIYEEMNNMSSAAEYYKEVLKQDNTHVEAIACIGSNHFYSDQPEIALRFYRRLLQMGIYNGQLFNNLGLCCFYAQQYDMTLTSFERALSLAENEEEAADVWYNLGHVAVGIGDTNLAHQCFRLALVNNNNHAEAYNNLAVLEMRKGHVEQARALLQTASSLAPHMYEPHFNFATISDKIGDLQRSYVAAQKSEAAFPDHVDTQHLIKQLRQHFAML
As to B2, in test [1], the binding result was “binds”.

B3: BBS7 (protein, UniProt Q8IWZ6 1-715)
chain: MDLILNRMDYLQVGVTSQKTMKLIPASRHRATQKVVIGDHDGVVMCFGMKKGEAAAVFKTLPGPKIARLELGGVINTPQEKIFIAAASEIRGFTKRGKQFLSFETNLTESIKAMHISGSDLFLSASYIYNHYCDCKDQHYYLSGDKINDVICLPVERLSRITPVLACQDRVLRVLQGSDVMYAVEVPGPPTVLALHNGNGGDSGEDLLFGTSDGKLALIQITTSKPVRKWEIQNEKKRGGILCIDSFDIVGDGVKDLLVGRDDGMVEVYSFDNANEPVLRFDQMLSESVTSIQGGCVGKDSYDEIVVSTYSGWVTGLTTEPIHKESGPGEELKINQEMQNKISSLRNELEHLQYKVLQERENYQQSSQSSKAKSAVPSFGINDKFTLNKDDASYSLILEVQTAIDNVLIQSDVPIDLLDVDKNSAVVSFSSCDSESNDNFLLATYRCQADTTRLELKIRSIEGQYGTLQAYVTPRIQPKTCQVRQYHIKPLSLHQRTHFIDHDRPMNTLTLTGQFSFAEVHSWVVFCLPEVPEKPPAGECVTFYFQNTFLDTQLESTYRKGEGVFKSDNISTISILKDVLSKEATKRKINLNISYEINEVSVKHTLKLIHPKLEYQLLLAKKVQLIDALKELQIHEGNTNFLIPEYHCILEEADHLQEEYKKQPAHLERLYGMITDLFIDKFKFKGTNVKTKVPLLLEILDSYDQNALISFFDAA
Turning to B3, the binding entry in test [1] is “binds”.

B4: BBS5 (protein, UniProt Q8N3I7 1-341)
chain: MSVLDALWEDRDVRFDLSAQQMKTRPGEVLIDCLDSIEDTKGNNGDRGRLLVTNLRILWHSLALSRVNVSVGYNCILNITTRTANSKLRGQTEALYILTKCNSTRFEFIFTNLVPGSPRLFTSVMAVHRAYETSKMYRDFKLRSALIQNKQLRLLPQEHVYDKINGVWNLSSDQGNLGTFFITNVRIVWHANMNDSFNVSIPYLQIRSIKIRDSKFGLALVIESSQQSGGYVLGFKIDPVEKLQESVKEINSLHKVYSASPIFGVDYEMEEKPQPLEALTVEQIQDDVEIDSDGHTDAFVAYFADGNKQQDREPVFSEELGLAIEKLKDGFTLQGLWEVMS
As to B4, the binding result in test [1] is reported as “binds”.

B5: BBS9 (protein, UniProt Q3SYG4 1-887)
chain: MSLFKARDWWSTILGDKEEFDQGCLCLANVDNSGNGQDKIIVGSFMGYLRIFSPHPAKTGDGAQAEDLLLEVDLRDPVLQVEVGKFVSGTEMLHLAVLHSRKLCVYSVSGTLGNVEHGNQCQMKLMYEHNLQRTACNMTYGSFGGVKGRDLICIQSMDGMLMVFEQESYAFGRFLPGFLLPGPLAYSSRTDSFLTVSSCQQVESYKYQVLAFATDADKRQETEQQKLGSGKRLVVDWTLNIGEQALDICIVSFNQSASSVFVLGERNFFCLKDNGQIRFMKKLDWSPSCFLPYCSVSEGTINTLIGNHNNMLHIYQDVTLKWATQLPHIPVAVRVGCLHDLKGVIVTLSDDGHLQCSYLGTDPSLFQAPNVQSRELNYDELDVEMKELQKIIKDVNKSQGVWPMTEREDDLNVSVVVSPNFDSVSQATDVEVGTDLVPSVTVKVTLQNRVILQKAKLSVYVQPPLELTCDQFTFEFMTPDLTRTVSFSVYLKRSYTPSELEGNAVVSYSRPTDRNPDGIPRVIQCKFRLPLKLICLPGQPSKTASHKITIDTNKSPVSLLSLFPGFASQSDDDQVNVMGFHFLGGARITVLASKTSQRYRIQSEQFEDLWLITNELILRLQEYFEKQGVKDFACSFSGSIPLQEYFELIDHHFELRINGEKLEELLSERAVQFRAIQRRLLARFKDKTPAPLQHLDTLLDGTYKQVIALADAVEENQGNLFQSFTRLKSATHLVILLIALWQKLSADQVAILEAAFLPLQEDTQELGWEETVDAAISHLLKTCLSKSSKEQALNLNSQLNIPKDTSQLKKHITLLCDRLSKGGRLCLSTDAAAPQTMVMPGGCTTIPESDLEERSVEQDSTELFTNHRHLTAETPRPEVSPLQGVSE
Consider B5, for which the binding entry in test [2] and in test [1] was “binds” throughout.

The values are drawn from doi:10.1101/2020.03.20.000091.
